Measured values reported in article PMC2820081.
No constants are given. Whether binding was seen depends on the method and setting. Some binding calls cover weakened binding; strength is not graded here.

Sequences of proteins named here, by UniProt entry; tags and fusion partners are left off.
UniProt Q96CV9: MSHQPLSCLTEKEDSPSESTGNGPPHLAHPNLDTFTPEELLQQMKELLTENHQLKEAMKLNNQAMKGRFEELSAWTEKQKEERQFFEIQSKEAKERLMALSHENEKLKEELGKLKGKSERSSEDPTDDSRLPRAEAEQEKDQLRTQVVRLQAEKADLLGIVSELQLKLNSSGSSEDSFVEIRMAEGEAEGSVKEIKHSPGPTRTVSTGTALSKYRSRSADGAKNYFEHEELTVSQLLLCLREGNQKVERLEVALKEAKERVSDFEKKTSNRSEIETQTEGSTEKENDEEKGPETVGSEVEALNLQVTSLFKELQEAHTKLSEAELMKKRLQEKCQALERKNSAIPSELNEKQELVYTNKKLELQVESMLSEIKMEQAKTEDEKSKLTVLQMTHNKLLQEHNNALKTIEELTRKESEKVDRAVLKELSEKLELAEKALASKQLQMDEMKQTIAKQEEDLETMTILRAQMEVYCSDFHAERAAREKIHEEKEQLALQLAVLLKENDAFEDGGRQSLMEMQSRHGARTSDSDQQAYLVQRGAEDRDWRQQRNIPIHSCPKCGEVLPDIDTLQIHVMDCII
UniProt Q9UM54: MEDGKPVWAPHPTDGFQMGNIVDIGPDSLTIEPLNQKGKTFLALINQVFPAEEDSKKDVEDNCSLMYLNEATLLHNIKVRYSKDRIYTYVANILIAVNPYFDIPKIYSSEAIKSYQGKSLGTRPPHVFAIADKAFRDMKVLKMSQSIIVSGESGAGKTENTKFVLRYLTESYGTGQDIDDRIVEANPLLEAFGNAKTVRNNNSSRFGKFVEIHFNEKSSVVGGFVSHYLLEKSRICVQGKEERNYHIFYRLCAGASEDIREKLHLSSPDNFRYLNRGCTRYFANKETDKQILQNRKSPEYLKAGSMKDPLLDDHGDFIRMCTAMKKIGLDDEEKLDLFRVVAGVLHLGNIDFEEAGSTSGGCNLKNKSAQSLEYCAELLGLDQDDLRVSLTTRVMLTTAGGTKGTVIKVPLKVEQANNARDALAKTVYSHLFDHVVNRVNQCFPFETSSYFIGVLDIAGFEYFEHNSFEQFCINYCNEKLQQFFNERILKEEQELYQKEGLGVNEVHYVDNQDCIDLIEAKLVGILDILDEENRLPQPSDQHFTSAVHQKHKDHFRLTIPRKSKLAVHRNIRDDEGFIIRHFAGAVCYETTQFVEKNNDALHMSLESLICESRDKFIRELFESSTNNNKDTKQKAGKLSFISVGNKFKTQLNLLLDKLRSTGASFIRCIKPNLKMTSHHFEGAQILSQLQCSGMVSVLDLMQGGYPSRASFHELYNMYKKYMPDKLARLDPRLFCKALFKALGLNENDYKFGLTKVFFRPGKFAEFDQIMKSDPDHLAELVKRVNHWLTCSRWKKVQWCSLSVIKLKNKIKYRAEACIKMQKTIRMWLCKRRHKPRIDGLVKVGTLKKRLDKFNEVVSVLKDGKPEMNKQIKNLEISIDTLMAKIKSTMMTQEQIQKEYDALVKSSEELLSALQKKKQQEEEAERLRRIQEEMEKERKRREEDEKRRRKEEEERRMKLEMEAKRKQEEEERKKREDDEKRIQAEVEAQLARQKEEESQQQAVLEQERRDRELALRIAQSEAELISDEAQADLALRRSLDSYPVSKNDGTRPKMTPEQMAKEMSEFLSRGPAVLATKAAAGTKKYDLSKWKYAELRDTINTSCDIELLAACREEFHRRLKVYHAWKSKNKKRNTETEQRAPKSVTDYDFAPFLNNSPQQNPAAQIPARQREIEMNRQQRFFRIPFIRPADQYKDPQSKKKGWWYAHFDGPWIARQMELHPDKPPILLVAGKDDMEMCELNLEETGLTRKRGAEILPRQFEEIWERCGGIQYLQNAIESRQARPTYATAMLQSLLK

Key:
[1] = target: FLAG-optineurin fusion protein (UniProt Q96CV9); experiment: native gel or EMSA; RGC5 cells co-transfected with pTarget-FLAG-OPTN and pRab8Q67L-EGFP, pMyoVI-EGFP and/or pTfR-EGFP in various combinations; 20 ug lysate on native blue gel; Western blot with anti-FLAG
[2] = target: FLAG-optineurin fusion protein (UniProt Q96CV9); experiment: native gel or EMSA; as a3 but in RPE cells; data not shown

binding [1]: binds
binding [2]: binds
Substance: Human myosin VI full length fused to EGFP (from UniProt Q9UM54 1-1294)
